Experimental data taken from article doi:10.1101/2024.04.20.590316.

Amino acid sequences for entries named in this document (tags omitted). Residues count along the entry.
UniProt Q13586, residues 23-685: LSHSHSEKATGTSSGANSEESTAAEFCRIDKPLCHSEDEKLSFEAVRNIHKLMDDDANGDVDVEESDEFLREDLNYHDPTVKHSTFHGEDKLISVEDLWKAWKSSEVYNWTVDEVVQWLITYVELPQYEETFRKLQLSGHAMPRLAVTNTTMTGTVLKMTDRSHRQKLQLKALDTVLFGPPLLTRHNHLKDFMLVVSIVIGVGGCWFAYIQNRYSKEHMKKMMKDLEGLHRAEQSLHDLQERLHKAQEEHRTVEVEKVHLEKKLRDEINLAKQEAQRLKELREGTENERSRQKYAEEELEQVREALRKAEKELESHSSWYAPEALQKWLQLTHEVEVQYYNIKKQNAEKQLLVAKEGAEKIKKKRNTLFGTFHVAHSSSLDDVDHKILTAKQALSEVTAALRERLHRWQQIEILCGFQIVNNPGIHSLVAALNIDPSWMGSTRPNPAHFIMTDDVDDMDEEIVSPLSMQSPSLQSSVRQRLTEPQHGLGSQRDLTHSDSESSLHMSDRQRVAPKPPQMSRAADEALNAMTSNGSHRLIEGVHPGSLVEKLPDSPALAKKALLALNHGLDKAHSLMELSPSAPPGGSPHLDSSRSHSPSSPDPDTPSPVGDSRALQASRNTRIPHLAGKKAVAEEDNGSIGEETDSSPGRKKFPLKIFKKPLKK
UniProt Q9P246, residues 15-746: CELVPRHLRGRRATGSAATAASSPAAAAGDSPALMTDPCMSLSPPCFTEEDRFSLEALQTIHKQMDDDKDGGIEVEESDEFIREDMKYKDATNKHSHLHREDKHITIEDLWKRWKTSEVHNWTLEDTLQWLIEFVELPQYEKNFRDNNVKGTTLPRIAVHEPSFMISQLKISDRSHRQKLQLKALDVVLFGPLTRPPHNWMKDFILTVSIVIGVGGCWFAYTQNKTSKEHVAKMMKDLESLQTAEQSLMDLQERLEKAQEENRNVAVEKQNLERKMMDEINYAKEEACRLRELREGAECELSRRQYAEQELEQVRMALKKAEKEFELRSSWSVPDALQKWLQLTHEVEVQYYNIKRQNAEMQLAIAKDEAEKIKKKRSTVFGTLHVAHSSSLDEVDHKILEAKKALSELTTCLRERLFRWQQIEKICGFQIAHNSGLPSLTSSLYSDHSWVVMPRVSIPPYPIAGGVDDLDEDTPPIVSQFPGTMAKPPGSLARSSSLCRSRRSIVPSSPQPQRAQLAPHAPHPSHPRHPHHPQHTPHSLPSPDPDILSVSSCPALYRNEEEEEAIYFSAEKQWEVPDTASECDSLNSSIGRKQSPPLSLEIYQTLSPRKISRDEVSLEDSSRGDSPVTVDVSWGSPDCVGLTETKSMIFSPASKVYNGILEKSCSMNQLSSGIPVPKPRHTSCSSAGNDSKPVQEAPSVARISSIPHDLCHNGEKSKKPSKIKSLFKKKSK
UniProt P07237, residues 18-508: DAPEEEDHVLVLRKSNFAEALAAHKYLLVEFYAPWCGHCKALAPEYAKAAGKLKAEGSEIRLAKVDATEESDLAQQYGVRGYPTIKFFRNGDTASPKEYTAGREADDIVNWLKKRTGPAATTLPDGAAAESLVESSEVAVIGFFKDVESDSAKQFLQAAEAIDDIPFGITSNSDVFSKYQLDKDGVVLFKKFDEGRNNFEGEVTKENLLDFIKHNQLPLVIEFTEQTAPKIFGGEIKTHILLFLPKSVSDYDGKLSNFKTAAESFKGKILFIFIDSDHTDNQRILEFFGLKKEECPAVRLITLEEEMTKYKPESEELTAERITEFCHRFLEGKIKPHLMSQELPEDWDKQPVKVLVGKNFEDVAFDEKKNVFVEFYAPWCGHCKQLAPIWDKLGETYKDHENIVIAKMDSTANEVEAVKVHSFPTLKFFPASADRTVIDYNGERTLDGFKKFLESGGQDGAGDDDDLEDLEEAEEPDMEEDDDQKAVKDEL
UniProt P09103, residues 20-509: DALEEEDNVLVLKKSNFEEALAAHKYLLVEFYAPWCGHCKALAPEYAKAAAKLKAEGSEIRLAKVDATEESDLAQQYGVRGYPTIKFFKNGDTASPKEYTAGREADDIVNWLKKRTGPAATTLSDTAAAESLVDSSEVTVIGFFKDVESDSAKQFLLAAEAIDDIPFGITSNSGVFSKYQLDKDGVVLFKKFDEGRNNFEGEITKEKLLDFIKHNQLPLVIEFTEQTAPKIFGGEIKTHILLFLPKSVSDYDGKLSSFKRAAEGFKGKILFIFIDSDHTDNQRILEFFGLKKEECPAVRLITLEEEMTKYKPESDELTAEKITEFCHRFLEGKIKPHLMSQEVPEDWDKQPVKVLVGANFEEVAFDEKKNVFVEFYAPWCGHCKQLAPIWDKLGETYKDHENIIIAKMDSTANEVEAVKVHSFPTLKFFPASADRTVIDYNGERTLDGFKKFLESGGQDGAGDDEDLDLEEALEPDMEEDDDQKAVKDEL
UniProt P27773, residues 25-505: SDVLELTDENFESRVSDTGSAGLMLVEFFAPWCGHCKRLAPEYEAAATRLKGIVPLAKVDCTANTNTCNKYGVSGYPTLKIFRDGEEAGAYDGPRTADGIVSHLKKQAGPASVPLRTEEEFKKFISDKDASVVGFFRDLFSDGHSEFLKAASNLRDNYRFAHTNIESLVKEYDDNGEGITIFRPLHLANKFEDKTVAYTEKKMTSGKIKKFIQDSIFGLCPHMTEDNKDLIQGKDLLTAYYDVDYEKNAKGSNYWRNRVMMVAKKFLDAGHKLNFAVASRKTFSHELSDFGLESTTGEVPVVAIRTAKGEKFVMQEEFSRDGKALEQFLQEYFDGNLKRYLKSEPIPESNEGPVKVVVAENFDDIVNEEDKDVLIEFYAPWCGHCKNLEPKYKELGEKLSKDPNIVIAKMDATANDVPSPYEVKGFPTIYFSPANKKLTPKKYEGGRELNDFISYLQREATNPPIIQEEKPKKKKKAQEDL
UniProt P14314, residues 15-528: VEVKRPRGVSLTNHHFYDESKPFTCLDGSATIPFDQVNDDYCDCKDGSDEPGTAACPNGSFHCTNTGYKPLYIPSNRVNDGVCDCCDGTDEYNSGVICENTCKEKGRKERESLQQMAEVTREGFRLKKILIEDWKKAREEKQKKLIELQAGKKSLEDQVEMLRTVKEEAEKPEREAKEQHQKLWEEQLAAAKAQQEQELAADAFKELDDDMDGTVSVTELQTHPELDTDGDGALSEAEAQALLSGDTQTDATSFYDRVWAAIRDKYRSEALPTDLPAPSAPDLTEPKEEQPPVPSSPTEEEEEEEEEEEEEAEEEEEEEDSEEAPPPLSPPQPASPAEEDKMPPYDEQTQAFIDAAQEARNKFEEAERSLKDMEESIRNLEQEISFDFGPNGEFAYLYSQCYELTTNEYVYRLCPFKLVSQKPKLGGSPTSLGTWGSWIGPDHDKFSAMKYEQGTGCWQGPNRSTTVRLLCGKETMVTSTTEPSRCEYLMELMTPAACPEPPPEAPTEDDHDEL
UniProt O08795, residues 15-521: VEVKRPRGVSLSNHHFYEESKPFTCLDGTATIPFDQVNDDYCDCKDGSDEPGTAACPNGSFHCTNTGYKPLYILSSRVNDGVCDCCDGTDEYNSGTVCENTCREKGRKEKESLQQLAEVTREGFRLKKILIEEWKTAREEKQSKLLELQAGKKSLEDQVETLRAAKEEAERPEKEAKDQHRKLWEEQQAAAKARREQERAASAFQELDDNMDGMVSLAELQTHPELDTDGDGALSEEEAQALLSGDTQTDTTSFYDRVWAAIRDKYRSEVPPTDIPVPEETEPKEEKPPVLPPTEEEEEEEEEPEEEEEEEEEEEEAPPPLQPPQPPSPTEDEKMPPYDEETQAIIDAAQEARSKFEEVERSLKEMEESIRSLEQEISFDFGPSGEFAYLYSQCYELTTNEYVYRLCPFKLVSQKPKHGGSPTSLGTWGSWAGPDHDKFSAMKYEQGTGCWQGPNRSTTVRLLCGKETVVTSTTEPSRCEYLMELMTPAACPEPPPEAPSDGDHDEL
UniProt Q8NBS9, residues 33-432: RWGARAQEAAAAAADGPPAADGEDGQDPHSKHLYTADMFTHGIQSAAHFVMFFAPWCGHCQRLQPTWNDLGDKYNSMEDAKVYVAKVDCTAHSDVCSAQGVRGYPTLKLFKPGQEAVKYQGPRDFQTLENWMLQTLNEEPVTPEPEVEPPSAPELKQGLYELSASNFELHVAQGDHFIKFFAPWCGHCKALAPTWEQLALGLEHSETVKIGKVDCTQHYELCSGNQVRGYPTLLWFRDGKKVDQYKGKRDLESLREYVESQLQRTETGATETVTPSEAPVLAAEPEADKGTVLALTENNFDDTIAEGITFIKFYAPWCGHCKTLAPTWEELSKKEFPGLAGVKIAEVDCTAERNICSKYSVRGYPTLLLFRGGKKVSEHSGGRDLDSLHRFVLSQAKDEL
UniProt Q91W90, residues 34-417: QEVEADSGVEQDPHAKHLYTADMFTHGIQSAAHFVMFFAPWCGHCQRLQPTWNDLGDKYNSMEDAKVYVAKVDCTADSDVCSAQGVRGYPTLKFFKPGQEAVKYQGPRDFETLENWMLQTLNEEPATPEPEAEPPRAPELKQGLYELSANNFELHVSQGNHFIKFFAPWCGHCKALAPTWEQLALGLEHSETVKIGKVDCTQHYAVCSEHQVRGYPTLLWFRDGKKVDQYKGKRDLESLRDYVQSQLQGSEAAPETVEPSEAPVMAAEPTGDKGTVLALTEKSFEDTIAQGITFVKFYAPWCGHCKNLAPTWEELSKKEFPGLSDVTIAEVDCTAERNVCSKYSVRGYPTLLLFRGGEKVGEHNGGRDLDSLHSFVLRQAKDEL
UniProt Q9NYU2, residues 43-1555: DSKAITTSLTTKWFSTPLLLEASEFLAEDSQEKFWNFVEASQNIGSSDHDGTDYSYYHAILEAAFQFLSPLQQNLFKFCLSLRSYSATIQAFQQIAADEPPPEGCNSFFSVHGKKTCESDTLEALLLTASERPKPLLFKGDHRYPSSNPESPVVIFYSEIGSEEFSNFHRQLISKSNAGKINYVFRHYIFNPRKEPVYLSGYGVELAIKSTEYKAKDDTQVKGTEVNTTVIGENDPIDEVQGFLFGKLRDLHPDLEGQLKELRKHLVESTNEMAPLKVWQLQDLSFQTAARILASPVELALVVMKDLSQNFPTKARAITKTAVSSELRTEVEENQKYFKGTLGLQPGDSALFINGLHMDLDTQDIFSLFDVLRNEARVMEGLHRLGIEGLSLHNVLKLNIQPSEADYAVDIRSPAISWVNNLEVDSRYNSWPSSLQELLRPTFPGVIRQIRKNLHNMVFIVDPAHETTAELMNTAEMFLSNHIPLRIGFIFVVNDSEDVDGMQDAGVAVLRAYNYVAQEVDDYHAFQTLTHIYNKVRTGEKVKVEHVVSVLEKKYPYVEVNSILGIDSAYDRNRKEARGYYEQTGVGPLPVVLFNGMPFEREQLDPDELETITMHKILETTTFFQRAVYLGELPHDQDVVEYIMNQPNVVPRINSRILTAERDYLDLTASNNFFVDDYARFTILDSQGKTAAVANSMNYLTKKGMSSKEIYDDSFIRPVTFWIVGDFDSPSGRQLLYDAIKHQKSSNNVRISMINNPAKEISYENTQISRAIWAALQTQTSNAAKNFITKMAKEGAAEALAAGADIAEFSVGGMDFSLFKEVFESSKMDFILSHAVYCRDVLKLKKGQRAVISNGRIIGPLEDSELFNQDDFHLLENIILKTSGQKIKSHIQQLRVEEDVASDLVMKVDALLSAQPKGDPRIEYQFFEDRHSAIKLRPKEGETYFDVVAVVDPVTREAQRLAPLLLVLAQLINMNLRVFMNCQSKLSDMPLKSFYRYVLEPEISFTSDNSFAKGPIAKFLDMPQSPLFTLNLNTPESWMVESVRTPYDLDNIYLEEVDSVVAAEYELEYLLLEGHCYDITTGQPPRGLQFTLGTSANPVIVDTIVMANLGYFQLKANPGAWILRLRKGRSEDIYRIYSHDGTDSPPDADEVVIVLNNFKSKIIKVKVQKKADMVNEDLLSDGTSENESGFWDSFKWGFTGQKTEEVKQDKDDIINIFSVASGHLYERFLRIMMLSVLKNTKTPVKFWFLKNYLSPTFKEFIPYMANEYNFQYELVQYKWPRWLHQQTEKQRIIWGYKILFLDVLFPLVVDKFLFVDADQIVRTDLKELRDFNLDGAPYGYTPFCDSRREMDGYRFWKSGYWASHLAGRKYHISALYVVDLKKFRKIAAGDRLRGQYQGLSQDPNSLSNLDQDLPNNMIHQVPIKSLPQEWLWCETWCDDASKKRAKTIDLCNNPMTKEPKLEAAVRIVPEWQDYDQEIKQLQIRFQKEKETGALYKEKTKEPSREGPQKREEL

How the values were obtained:
Assay in all cases: proximity labelling
[1] = molecular target: miniTurbo-STIM1-YFP (UniProt Q13586)
[2] = molecular target: miniTurbo-STIM2-YFP (UniProt Q9P246)
[3] = molecular target: miniTurbo-STIM1-YFP (UniProt Q13586); remark: listed apart in the source
[4] = molecular target: miniTurbo-STIM2-YFP (UniProt Q9P246); remark: listed apart in the source

binding [1]	binding [2]	also measured	Molecule
binds			P4HB, endogenous in HEK293 (from UniProt P07237 18-508) (enzyme)
	binds		P4HB, endogenous in Neuro-2A (from UniProt P09103 20-509) (enzyme)
	binds		PDIA3 (also known as ERp57), endogenous in Neuro-2A (from UniProt P27773 25-505) (enzyme)
binds			PRKCSH (the beta-subunit of glucosidase II), endogenous in HEK293 (from UniProt P14314 15-528)
	binds		PRKCSH (the beta-subunit of glucosidase II), endogenous in Neuro-2A (from UniProt O08795 15-521)
binds			TXNDC5, endogenous in HEK293 (from UniProt Q8NBS9 33-432) (enzyme)
	binds		TXNDC5, endogenous in Neuro-2A (from UniProt Q91W90 34-417) (enzyme)
binds			UGGT1, endogenous in HEK293 (from UniProt Q9NYU2 43-1555) (enzyme)
		binding [3]: binds	GANAB (the alpha subunit of glucosidase II), endogenous in HEK293 (enzyme, UniProt Q14697 29-944, biotin (added by miniTurbo in the cells; residues not stated)) ITLAVDRSNFKTCEESSFCKRQRSIRPGLSPYRALLDSLQLGPDSLTVHLIHEVTKVLLVLELQGLQKNMTRFRIDELEPRRPRYRVPDVLVADPPIARLSVSGRDENSVELTMAEGPYKIILTARPFRLDLLEDRSLLLSVNARGLLEFEHQRAPRVSQGSKDPAEGDGAQPEETPRDGDKPEETQGKAEKDEPGAWEETFKTHSDSKPYGPMSVGLDFSLPGMEHVYGIPEHADNLRLKVTEGGEPYRLYNLDVFQYELYNPMALYGSVPVLLAHNPHRDLGIFWLNAAETWVDISSNTAGKTLFGKMMDYLQGSGETPQTDVRWMSETGIIDVFLLLGPSISDVFRQYASLTGTQALPPLFSLGYHQSRWNYRDEADVLEVDQGFDDHNLPCDVIWLDIEHADGKRYFTWDPSRFPQPRTMLERLASKRRKLVAIVDPHIKVDSGYRVHEELRNLGLYVKTRDGSDYEGWCWPGSAGYPDFTNPTMRAWWANMFSYDNYEGSAPNLFVWNDMNEPSVFNGPEVTMLKDAQHYGGWEHRDVHNIYGLYVHMATADGLRQRSGGMERPFVLARAFFAGSQRFGAVWTGDNTAEWDHLKISIPMCLSLGLVGLSFCGADVGGFFKNPEPELLVRWYQMGAYQPFFRAHAHLDTGRREPWLLPSQHNDIIRDALGQRYSLLPFWYTLLYQAHREGIPVMRPLWVQYPQDVTTFNIDDQYLLGDALLVHPVSDSGAHGVQVYLPGQGEVWYDIQSYQKHHGPQTLYLPVTLSSIPVFQRGGTIVPRWMRVRRSSECMKDDPITLFVALSPQGTAQGELFLDDGHTFNYQTRQEFLLRRFSFSGNTLVSSSADPEGHFETPIWIERVVIIGAGKPAAVVLQTKGSPESRLSFQHDPETSVLVLRKPGINVASDWSIHLR
		binding [4]: binds	GANAB (the alpha subunit of glucosidase II), endogenous in Neuro-2A (enzyme, UniProt Q8BHN3 33-944, biotin (added by miniTurbo in the cells; residues not stated)) VDRSNFKTCDESSFCKRQRSIRPGLSPYRALLDTLQLGPDALTVHLIHEVTKVLLVLELQGLQKNMTRIRIDELEPRRPRYRVPDVLVADPPTARLSVSGRDDNSVELTVAEGPYKIILTAQPFRLDLLEDRSLLLSVNARGLMAFEHQRAPRVPQESKDPAEGNGAQPEATPGDGDKPEETQEKAEKDEPGAWEETFKTHSDSKPYGPTSVGLDFSLPGMEHVYGIPEHADSLRLKVTEGGEPYRLYNLDVFQYELNNPMALYGSVPVLLAHSFHRDLGIFWLNAAETWVDISSNTAGKTLFGKMLDYLQGSGETPQTDIRWMSESGIIDVFLMLGPSVFDVFRQYASLTGTQALPPLFSLGYHQSRWNYRDEADVLEVDQGFDDHNMPCDVIWLDIEHADGKRYFTWDPTRFPQPLNMLEHLASKRRKLVAIVDPHIKVDSGYRVHEELRNHGLYVKTRDGSDYEGWCWPGSASYPDFTNPRMRAWWSNMFSFDNYEGSAPNLYVWNDMNEPSVFNGPEVTMLKDAVHYGGWEHRDIHNIYGLYVHMATADGLIQRSGGIERPFVLSRAFFSGSQRFGAVWTGDNTAEWDHLKISIPMCLSLALVGLSFCGADVGGFFKNPEPELLVRWYQMGAYQPFFRAHAHLDTGRREPWLLASQYQDAIRDALFQRYSLLPFWYTLFYQAHKEGFPVMRPLWVQYPEDMSTFSIEDQFMLGDALLIHPVSDAGAHGVQVYLPGQEEVWYDIQSYQKHHGPQTLYLPVTLSSIPVFQRGGTIVPRWMRVRRSSDCMKDDPITLFVALSPQGTAQGELFLDDGHTFNYQTRHEFLLRRFSFSGSTLVSSSADPKGHLETPIWIERVVIMGAGKPAAVVLQTKGSPESRLSFQHDPETSVLILRKPGVSVASDWSIHLR

Like-named read-outs stand apart in the source and are kept apart here. No constants are given. Whether binding was seen depends on the method and setting. Binding seen in cells or lysates may run through a third protein. These calls come from enrichment with a bait or labelling near it, and not all partners need be listed. For some of these results: Tags and fused reporters may be left off the sequences shown.
